Results deposited as PubChem BioAssay AID504786 (Drosophila RNAi Screening Center, 2011)
Purpose: 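Positive regulators of HIF-driven reporter output in Drosophila cells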 (primary screen). Cell system: Drosophila S2 cells with a stable HIF luciferase reporter. Reagent: long dsRNA against Drosophila genes, about 0.2 µg dsRNA per well of a 384-well plate. Timing: three days of knock-down, then 20 h of DFO before reading. Conditions: desferrioxamine (DFO) at 100 µM, an iron chelator that mimics hypoxia, for 20 h. Measurement: 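HIF reporter luminescence in cells given 100 µM DFO for 20 h, using the mouse ldh-a hypoxia-response element, scored as per-plate z-scores; higher means greater loss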. Direction: z-score: higher = stronger loss of HIF reporter signal.
The deposit covers about 21,000 reagents; this is an unselected part of those that have a named target and a result. 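Primary screen; positive scores mean lost reporter signal, so the sign may be inverted from the usual convention.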 The numbers tell different reagents against one gene apart. A plus sign joins genes that one reagent is predicted to hit. Further read-outs or replicates are left out here.

Uvrag
- z-score, replicate 1: -0.2

CG12766
- z-score, replicate 1: -0.3

nenya
- z-score, replicate 1: 0

Rbfox1 #1
- z-score, replicate 1: -0.4

Rbfox1 #2
- z-score, replicate 1: -0.3

Rbfox1 #3
- z-score, replicate 1: 1.2

PPP1R15
- z-score, replicate 1: -0.3

Debcl
- z-score, replicate 1: -0.3

DIP-beta #1
- z-score, replicate 1: 0.6

DIP-beta #2
- z-score, replicate 1: -0.4

DIP-beta #3
- z-score, replicate 1: -0.1

DIP-beta #4
- z-score, replicate 1: -0.1

CG9396
- z-score, replicate 1: -0.3

Or35a
- z-score, replicate 1: -0.2

CG15115
- z-score, replicate 1: -1.1

Cdc42
- z-score, replicate 1: 2.4

Glys
- z-score, replicate 1: -0.4

e(y)2b
- z-score, replicate 1: -0.3

Nadk1b #1
- z-score, replicate 1: -0.2

Nadk1b #2
- z-score, replicate 1: -0.4

Nadk1b #3
- z-score, replicate 1: -0.4

Mal-A5
- z-score, replicate 1: -0.3

CG34159
- z-score, replicate 1: 3.1

CG6424
- z-score, replicate 1: -0.3

Atu
- z-score, replicate 1: 0.3

CG1603
- z-score, replicate 1: -0.2

Targets above whose target name starts with D or d:
Debcl
- z-score, replicate 1: -0.3

DIP-beta #1
- z-score, replicate 1: 0.6

DIP-beta #2
- z-score, replicate 1: -0.4

DIP-beta #3
- z-score, replicate 1: -0.1

DIP-beta #4
- z-score, replicate 1: -0.1

Further reagents follow.
Snmp2 #1
- z-score, replicate 1: -0.1

Snmp2 #2
- z-score, replicate 1: -0.2

Or22b
- z-score, replicate 1: -0.2

Jon65Aii
- z-score, replicate 1: -0.4

Tm1 #1
- z-score, replicate 1: -0.3

Tm1 #2
- z-score, replicate 1: -0.5

Tm1 #3
- z-score, replicate 1: -0.2

CG4630
- z-score, replicate 1: -0.2

Elp6
- z-score, replicate 1: 1.6

Nubp1
- z-score, replicate 1: -0.3

CG34126
- z-score, replicate 1: -0.3

eIF3h
- z-score, replicate 1: 0.7

Rad23
- z-score, replicate 1: -0.1

CG4297
- z-score, replicate 1: 0.2

Ypel
- z-score, replicate 1: -0.2

CG6686
- z-score, replicate 1: 1.5

CG14229
- z-score, replicate 1: 0.1

mle
- z-score, replicate 1: 0

CG12935 + Nop10
- z-score, replicate 1: -0.3

CG14245
- z-score, replicate 1: -0.5

Cnep1r2
- z-score, replicate 1: -0.2

Pak3
- z-score, replicate 1: -0.3

CG7963
- z-score, replicate 1: -0.3

PH4alphaEFB #1
- z-score, replicate 1: -0.3

PH4alphaEFB #2
- z-score, replicate 1: -0.6
